Only a part is listed here, and it is no random draw.
compound: COC(=O)C#Cc1ccccc1 [methyl 3-phenylpropiolate]; assay: log2 ratio of iodoacetamide-alkyne labeling of the cysteine site, DMSO over compound (competition); higher = stronger covalent engagement of the cysteine by the compound, active = 1 or more; details: 500 µM; treatment time 1 h; system: HEK293T cell lysate
Summary of the method: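 Electrophile (500 µM) or vehicle was added to HEK293T lysate (2 mg/mL) for 1 h at ambient temperature before iodoacetamide alkyne labelling (1 h) and click coupling to sCIP-TMT reagents. After pooling, overnight trypsin digestion at 37 °C, streptavidin enrichment and acid elution, peptides were measured by Orbitrap Eclipse LC-MS/MS with FAIMS and quantified in FragPipe. Each cysteine's log2 competition ratio compares mean control-channel with mean compound-channel reporter intensity, control over compound. Data came from duplicate channels across three replicates, excluding cysteines quantified in only one replicate.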

By UniProt entry, the sequences of proteins in these tests, tags left out. Where a name states a change or a piece, a line headed by the entry shows the natural chain unless it says otherwise.
UniProt Q9P2I0: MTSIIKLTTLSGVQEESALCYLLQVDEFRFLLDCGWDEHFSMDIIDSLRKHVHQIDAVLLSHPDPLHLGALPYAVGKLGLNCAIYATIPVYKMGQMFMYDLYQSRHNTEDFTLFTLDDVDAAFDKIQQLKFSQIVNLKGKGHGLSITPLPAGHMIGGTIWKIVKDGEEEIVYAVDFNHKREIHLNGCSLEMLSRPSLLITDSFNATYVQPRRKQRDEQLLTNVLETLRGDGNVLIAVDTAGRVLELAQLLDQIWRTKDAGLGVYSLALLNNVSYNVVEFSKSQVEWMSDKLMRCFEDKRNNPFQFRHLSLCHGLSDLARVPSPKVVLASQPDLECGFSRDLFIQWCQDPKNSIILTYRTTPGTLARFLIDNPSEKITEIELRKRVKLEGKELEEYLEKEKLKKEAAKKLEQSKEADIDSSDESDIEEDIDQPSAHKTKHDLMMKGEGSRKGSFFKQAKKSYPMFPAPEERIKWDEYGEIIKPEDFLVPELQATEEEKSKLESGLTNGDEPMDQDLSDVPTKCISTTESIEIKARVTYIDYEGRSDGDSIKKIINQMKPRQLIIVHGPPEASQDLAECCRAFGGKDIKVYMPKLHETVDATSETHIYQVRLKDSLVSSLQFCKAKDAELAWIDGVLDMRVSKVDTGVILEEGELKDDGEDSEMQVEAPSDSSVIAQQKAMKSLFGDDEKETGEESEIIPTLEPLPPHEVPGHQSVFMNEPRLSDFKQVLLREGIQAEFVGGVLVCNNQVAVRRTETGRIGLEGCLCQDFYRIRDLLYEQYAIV
UniProt Q9UGV2: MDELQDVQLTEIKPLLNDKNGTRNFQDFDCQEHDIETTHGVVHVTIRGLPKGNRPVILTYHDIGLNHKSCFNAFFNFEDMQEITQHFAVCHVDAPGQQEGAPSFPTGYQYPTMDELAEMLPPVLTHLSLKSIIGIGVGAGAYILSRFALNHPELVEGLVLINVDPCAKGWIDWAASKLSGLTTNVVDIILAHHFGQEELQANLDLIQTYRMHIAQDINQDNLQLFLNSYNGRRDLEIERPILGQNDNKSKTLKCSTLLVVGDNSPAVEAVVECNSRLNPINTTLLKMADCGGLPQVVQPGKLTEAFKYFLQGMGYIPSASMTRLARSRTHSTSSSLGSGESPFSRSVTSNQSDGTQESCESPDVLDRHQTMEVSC
UniProt Q9UBV8: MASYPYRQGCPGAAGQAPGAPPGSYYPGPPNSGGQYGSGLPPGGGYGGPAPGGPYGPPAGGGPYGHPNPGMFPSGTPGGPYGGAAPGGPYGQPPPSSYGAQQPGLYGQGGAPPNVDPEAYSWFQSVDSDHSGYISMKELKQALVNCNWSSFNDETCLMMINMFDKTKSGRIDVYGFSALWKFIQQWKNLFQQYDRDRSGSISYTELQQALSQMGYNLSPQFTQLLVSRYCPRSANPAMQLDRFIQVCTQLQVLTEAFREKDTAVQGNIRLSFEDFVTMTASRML
UniProt Q9NZC3: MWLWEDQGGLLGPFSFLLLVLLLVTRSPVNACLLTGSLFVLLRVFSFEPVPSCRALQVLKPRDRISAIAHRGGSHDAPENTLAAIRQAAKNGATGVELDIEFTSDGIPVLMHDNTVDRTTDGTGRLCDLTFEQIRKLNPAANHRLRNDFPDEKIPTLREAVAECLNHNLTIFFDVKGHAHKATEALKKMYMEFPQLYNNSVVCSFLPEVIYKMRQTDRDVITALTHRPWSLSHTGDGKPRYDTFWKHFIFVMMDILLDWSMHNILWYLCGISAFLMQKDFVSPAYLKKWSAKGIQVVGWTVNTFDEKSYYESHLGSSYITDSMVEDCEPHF
UniProt Q9NZL9, whole entry, looked up: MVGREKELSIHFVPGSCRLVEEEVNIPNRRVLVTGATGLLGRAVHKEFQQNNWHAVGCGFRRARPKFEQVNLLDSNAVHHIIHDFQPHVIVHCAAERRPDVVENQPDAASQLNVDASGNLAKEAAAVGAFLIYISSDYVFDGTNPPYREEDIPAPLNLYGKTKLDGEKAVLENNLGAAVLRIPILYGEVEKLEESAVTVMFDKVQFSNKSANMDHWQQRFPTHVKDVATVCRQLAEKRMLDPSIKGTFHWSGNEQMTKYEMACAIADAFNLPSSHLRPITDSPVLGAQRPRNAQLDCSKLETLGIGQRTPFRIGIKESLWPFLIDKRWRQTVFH
UniProt Q9NW13: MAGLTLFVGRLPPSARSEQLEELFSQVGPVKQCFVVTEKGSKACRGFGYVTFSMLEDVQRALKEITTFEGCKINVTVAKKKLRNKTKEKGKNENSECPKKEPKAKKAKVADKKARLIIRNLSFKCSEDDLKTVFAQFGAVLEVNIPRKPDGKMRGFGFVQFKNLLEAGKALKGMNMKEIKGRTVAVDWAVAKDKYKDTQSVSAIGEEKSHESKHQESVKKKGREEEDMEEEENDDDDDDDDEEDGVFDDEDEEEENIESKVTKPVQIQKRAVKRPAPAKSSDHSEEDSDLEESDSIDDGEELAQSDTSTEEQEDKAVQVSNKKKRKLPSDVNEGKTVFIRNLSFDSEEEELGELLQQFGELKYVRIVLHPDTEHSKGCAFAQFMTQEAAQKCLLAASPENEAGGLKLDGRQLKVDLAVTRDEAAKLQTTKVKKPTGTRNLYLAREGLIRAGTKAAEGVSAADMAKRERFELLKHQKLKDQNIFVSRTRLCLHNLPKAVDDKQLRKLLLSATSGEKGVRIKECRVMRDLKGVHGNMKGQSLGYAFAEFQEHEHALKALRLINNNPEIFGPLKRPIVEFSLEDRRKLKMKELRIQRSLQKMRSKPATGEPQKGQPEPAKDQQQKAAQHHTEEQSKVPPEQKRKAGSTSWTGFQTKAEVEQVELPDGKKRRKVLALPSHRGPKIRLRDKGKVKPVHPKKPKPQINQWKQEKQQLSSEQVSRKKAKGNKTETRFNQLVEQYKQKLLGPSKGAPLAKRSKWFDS
UniProt Q9NVG8: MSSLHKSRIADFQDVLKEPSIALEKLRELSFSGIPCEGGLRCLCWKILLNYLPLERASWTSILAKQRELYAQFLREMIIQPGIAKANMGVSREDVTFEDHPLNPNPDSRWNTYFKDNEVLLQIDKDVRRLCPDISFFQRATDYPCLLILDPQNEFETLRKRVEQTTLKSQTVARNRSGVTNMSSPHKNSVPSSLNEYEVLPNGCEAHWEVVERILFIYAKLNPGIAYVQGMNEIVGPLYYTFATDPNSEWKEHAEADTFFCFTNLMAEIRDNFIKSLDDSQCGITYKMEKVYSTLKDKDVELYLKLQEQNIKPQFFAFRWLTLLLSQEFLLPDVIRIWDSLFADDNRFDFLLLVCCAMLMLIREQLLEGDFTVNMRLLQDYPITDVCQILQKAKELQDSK
UniProt Q9NVI1: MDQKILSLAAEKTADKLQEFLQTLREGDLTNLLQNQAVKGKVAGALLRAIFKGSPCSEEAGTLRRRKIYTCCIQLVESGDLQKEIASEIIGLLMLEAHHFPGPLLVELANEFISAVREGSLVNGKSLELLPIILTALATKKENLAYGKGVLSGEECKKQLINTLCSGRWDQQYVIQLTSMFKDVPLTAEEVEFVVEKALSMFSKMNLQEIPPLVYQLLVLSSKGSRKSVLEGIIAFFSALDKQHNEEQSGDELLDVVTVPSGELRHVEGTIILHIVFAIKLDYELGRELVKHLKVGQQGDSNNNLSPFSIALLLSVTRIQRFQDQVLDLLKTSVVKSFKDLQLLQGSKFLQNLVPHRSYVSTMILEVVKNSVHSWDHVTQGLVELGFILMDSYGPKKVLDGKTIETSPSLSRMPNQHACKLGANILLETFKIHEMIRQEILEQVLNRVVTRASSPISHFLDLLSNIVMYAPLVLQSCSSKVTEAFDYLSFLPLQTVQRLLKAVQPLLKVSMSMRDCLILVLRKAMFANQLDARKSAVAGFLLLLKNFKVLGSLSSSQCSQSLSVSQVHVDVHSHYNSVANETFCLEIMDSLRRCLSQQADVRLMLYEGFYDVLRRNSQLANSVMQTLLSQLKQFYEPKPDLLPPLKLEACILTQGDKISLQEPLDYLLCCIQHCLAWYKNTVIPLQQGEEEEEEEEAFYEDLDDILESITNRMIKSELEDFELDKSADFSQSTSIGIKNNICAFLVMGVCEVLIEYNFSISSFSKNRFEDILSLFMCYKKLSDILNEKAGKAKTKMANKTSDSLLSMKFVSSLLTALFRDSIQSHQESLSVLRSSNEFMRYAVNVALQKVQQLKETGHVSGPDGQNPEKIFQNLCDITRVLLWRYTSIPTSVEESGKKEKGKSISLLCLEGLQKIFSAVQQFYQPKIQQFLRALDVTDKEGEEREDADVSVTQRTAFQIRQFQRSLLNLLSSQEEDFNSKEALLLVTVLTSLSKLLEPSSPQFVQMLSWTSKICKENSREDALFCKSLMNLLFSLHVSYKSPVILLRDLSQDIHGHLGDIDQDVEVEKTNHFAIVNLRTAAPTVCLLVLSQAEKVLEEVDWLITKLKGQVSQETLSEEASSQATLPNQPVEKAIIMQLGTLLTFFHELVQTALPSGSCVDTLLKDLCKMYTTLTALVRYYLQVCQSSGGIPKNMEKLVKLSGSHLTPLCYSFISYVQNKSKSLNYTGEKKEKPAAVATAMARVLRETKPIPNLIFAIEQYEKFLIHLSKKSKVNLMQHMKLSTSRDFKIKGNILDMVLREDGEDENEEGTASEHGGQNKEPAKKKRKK
UniProt Q9NYY8: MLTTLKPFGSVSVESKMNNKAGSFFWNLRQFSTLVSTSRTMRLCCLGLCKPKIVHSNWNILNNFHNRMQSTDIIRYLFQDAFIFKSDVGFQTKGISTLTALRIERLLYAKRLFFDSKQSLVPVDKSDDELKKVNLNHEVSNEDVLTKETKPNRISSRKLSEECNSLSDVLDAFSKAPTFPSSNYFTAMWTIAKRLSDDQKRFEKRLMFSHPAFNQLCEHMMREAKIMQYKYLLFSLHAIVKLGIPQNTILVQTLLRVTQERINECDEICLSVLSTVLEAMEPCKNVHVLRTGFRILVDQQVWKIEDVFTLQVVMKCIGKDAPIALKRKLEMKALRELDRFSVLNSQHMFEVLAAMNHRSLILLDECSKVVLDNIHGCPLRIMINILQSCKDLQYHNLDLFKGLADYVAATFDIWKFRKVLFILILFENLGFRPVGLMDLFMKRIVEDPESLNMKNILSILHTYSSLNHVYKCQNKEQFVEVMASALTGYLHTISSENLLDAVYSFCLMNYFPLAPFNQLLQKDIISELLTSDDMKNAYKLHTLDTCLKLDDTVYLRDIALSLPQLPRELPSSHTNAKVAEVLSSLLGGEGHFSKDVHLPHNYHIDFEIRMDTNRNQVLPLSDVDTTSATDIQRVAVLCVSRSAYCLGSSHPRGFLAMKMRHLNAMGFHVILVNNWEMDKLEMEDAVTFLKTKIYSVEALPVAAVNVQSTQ
UniProt Q9UFW8: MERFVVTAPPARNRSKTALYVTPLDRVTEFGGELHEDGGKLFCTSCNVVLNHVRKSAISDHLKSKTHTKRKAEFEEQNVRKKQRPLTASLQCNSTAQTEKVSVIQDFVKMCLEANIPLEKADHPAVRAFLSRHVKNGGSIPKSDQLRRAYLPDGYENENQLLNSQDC
UniProt Q9UHD1: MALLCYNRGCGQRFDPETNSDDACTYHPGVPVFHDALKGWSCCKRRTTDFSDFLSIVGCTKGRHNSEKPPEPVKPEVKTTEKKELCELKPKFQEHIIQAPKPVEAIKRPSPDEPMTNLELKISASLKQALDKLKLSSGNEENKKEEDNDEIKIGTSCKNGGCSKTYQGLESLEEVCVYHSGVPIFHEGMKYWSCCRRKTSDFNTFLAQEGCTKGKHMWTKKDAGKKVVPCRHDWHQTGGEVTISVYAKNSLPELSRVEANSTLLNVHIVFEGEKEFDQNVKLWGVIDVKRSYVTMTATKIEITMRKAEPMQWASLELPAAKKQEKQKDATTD
UniProt Q9P2B4: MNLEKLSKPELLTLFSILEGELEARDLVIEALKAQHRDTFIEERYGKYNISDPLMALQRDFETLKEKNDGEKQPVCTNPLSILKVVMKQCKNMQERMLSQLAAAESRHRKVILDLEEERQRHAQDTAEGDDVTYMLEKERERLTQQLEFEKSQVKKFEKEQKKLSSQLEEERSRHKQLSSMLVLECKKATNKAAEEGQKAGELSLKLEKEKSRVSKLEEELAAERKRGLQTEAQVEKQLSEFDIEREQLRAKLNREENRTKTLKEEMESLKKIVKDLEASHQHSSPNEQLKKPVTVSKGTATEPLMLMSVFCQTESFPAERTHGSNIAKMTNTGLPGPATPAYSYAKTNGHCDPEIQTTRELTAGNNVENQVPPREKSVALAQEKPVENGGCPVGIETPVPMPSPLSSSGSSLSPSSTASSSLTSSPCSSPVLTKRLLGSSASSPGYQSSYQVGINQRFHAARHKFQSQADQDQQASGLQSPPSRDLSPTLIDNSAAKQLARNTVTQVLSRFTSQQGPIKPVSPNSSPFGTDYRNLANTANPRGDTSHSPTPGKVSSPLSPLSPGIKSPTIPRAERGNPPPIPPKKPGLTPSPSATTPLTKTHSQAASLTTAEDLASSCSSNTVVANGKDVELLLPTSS

log2 ratio of iodoacetamide-alkyne labeling, active:
NCDN C4 (UniProt Q9UBB6) 1.66, CPSF2 C765 (UniProt Q9P2I0) 1.01

log2 ratio of iodoacetamide-alkyne labeling, inactive:
UniProt Q9NWV8_C222 0.395, NDRG3 C290 (UniProt Q9UGV2) -0.105, LIMD1 C374 (UniProt Q9UGP4) 0.393, PEF1 C230 (UniProt Q9UBV8) 0.166, GDE1 C127 (UniProt Q9NZC3) -0.0158, GAR1 C80 (UniProt Q9NY12) 0.132, CTSZ C92 (UniProt Q9UBR2) -0.349, PPP4R2 C296 (UniProt Q9NY27) 0.921, UniProt Q9NWY4_C17 0.873, MAT2B C58 (UniProt Q9NZL9) 0.162, RBM28 C378 (UniProt Q9NW13) 0.31, TBC1D13 C131 (UniProt Q9NVG8) -0.0249, TBC1D13 C387 (UniProt Q9NVG8) 0.302, FANCI C875 (UniProt Q9NVI1) 0.245, FASTKD2 C163 (UniProt Q9NYY8) -0.227, FAM120A C669 (UniProt Q9NZB2) 0.253, EIF3K C85 (UniProt Q9UBQ5) 0.258, CPSF2 C621 (UniProt Q9P2I0) 0.241, TRMT1 C621 (UniProt Q9NXH9) -0.0886, UniProt Q9NW64_C27 -0.000923, UniProt Q9NWY4_C152 0.039, ADD3 C73 (UniProt Q9UEY8) 0.00986, FANCI C594 (UniProt Q9NVI1) 0.0765, UniProt Q9P266_C243 0.578, UniProt Q9P289_C352 0.0559, COPG2 C440 (UniProt Q9UBF2) 0.463, UTP6 C310 (UniProt Q9NYH9) 0.0486, CPSF2 C82 (UniProt Q9P2I0) 0.0445, MRPS18A C186 (UniProt Q9NVS2) 0.257, TBC1D13 C145 (UniProt Q9NVG8) 0.0279, UBA2 C185 (UniProt Q9UBT2) 0.0148, CGGBP1 C111 (UniProt Q9UFW8) 0.131, FAM120C C14 (UniProt Q9NX05) 0.327, CHORDC1 C211 (UniProt Q9UHD1) 0.207, CTTNBP2NL C312 (UniProt Q9P2B4) 0.348

Reference: the supplement of paper PMC11006884
